The list is a part of this screen's results and no random one: it gathers tests that were run many times, whatever their T/C, doses with no T/C, and many T/C values between a quarter and a half above the control. Other doses and runs of a compound stand elsewhere. T/C: endpoint of the treated group in % of that of the vehicle group. Some doses have a count of surviving animals in place of a T/C: the source files T/C as zero there, which appears to mark a toxic dose or a test without result, not a measured value. Some survivor counts are full or nearly so, which does not show that the dose was tolerated: the source hardly ever lists a survival T/C far under the control, and the zero likely stands for such cases as well. Survivors were counted at the toxicity check, usually on the fifth day, unless a day is given; later deaths do not show. Schedules are NCI's codes, read here as Q, the interval in days (D) or hours (H), X, the number of doses. Some schedules carry Z or #; the key to these is not given. Some entries hold several experiments; their values stand side by side, smallest first. Where survival is the endpoint, this PubChem deposit counts one and a half times the control or more as active, and values a quarter to a half above the control carry no call in these data; other NCI protocols may use other cut-offs. Some T/C values carry the count of animals alive at the toxicity check (mostly the fifth day); where none is given, no animal had died by that day.

For the test, the system named is L1210 leukemia ip in BDF1 mice, survival T/C. The experiment in a line: NCI In Vivo Anticancer Drug Screen. Data for tumor model L1210 Leukemia (intraperitoneal) in B6D2F1 (BDF1) mice. The settings on record: T/C endpoint: mean survival time, higher T/C = longer survival.
The mark [1] stands for this setting: dose: 54.0 mg/kg/injection, schedule: Q01DX001 (ip), vehicle: other.

In the case of `O=NN(CCF)C(=O)NC1CCCCC1`, the T/C (dose: 1.56 mg/kg/injection, schedule: Q03HX032 (oral), vehicle: carboxymethylcellulose (CMC)) is 133 % of control; the T/C (dose: 2.66 mg/kg/injection, schedule: Q#B X003 (ip), vehicle: other) was 134 % of control; the T/C (dose: 3.12 mg/kg/injection, schedule: Q03HX008 (oral), vehicle: carboxymethylcellulose (CMC)) was 144 % of control; the T/C (dose: 4.52 mg/kg/injection, schedule: Q01DX015 (ip), vehicle: other) was 133 and 147 % of control; the T/C (dose: 7.5 mg/kg/injection, schedule: Q01DX001 (ip), vehicle: carboxymethylcellulose (CMC)) was 126 % of control; the T/C (dose: 9.6 mg/kg/injection, schedule: Q## X032 (ip), vehicle: other) was 138 % of control. Further, the T/C reads like this: (dose: 10.0 mg/kg/injection, schedule: Q01DX001 (ip), vehicle: carboxymethylcellulose (CMC)) 132 % of control; (dose: 10.0 mg/kg/injection, schedule: Q## X032 (ip), vehicle: other) 140 % of control; (dose: 12.5 mg/kg/injection, schedule: Q04DX004 (ip), vehicle: carboxymethylcellulose (CMC)) 138 % of control; (dose: 12.5 mg/kg/injection, schedule: Q04DX004 (oral), vehicle: carboxymethylcellulose (CMC)) 138 % of control; (dose: 13.0 mg/kg/injection, schedule: Q01DX001 (ip), vehicle: carboxymethylcellulose (CMC)) 128 % of control; (dose: 14.0 mg/kg/injection, schedule: Q## X032 (ip), vehicle: other) 135 % of control. In addition, the T/C is 126 % of control (dose: 19.4 mg/kg/injection, schedule: Q01DX001 (ip), vehicle: carboxymethylcellulose (CMC)); 149 % of control (dose: 20.0 mg/kg/injection, schedule: Q01DX001 (ip), vehicle: carboxymethylcellulose (CMC)); 128 % of control (dose: 22.0 mg/kg/injection, schedule: Q## X032 (ip), vehicle: other); 133 % of control (dose: 25.0 mg/kg/injection, schedule: Q01DX013 (ip), vehicle: carboxymethylcellulose (CMC)); 127 % of control [7 of 8 alive] (dose: 25.0 mg/kg/injection, schedule: Q03HX008 (oral), vehicle: carboxymethylcellulose (CMC)); 128 % of control (dose: 32.0 mg/kg/injection, schedule: Q## X032 (ip), vehicle: other). Besides, the T/C runs as follows: (dose: 32.4 mg/kg/injection, schedule: Q01DX001 (ip), vehicle: carboxymethylcellulose (CMC)) 144 % of control; (dose: 50.0 mg/kg/injection, schedule: Q01DX013 (ip), vehicle: carboxymethylcellulose (CMC)) 144 % of control; under setting [1], 703 % of control [9 of 10 alive]; (dose: 60.0 mg/kg/injection, schedule: Q## X004 (ip), vehicle: other) 134 % of control [8 of 10 alive]; (dose: 100.0 mg/kg/injection, schedule: Q01DX005 (oral), vehicle: carboxymethylcellulose (CMC)) 133 % of control [6 of 8 alive]. Further, the survivor count is, setting by setting: (dose: 12.5 mg/kg/injection, schedule: Q01DX005 (ip), vehicle: carboxymethylcellulose (CMC)) 0 of 8; (dose: 12.5 mg/kg/injection, schedule: Q03HX008 (ip), vehicle: carboxymethylcellulose (CMC)) 8 of 8; (dose: 13.5 mg/kg/injection, schedule: Q01DX001 (ip), vehicle: other) 2 of 10; (dose: 25.0 mg/kg/injection, schedule: Q03HX008 (ip), vehicle: carboxymethylcellulose (CMC)) 4 of 8; (dose: 37.5 mg/kg/injection, schedule: Q01DX001 (ip), vehicle: carboxymethylcellulose (CMC)) 0 of 6; (dose: 41.0 mg/kg/injection, schedule: Q## X001 (ip), vehicle: other) 50 of 50. For the same compound, the survivor count is given as 2 of 6 (dose: 50.0 mg/kg/injection, schedule: Q01DX001 (ip), vehicle: carboxymethylcellulose (CMC)); 1 of 6 (dose: 50.0 mg/kg/injection, schedule: Q01DX001 (sc), vehicle: other); 4 of 10, 5 of 10, 6 of 10 under setting [1]; 1 of 9 (dose: 54.0 mg/kg/injection, schedule: Q01DX001 (oral), vehicle: other); 0 of 6 (dose: 75.0 mg/kg/injection, schedule: Q01DX001 (ip), vehicle: carboxymethylcellulose (CMC)); 3 of 10 (dose: 81.0 mg/kg/injection, schedule: Q01DX001 (ip), vehicle: other). Besides, the survivor count reads like this: (dose: 100.0 mg/kg/injection, schedule: Q01DX001 (ip), vehicle: carboxymethylcellulose (CMC)) 0 of 6 and 4 of 8; (dose: 100.0 mg/kg/injection, schedule: Q01DX001 (sc), vehicle: carboxymethylcellulose (CMC)) 6 of 8; (dose: 100.0 mg/kg/injection, schedule: Q01DX001 (sc), vehicle: other) 0 of 6; (dose: 100.0 mg/kg/injection, schedule: Q01DX005 (ip), vehicle: carboxymethylcellulose (CMC)) 1 of 8; (dose: 100.0 mg/kg/injection, schedule: Q04DX004 (ip), vehicle: carboxymethylcellulose (CMC)) 5 of 8; (dose: 122.0 mg/kg/injection, schedule: Q01DX001 (ip), vehicle: other) 0 of 10. The survivor count is on record as 0 of 6 (dose: 125.0 mg/kg/injection, schedule: Q01DX001 (ip), vehicle: carboxymethylcellulose (CMC)); 0 of 6 (dose: 150.0 mg/kg/injection, schedule: Q01DX001 (ip), vehicle: carboxymethylcellulose (CMC)); 0 of 6 (dose: 175.0 mg/kg/injection, schedule: Q01DX001 (ip), vehicle: carboxymethylcellulose (CMC)); 7 of 8 (dose: 200.0 mg/kg/injection, schedule: Q01DX001 (oral), vehicle: carboxymethylcellulose (CMC)); 6 of 8 (dose: 200.0 mg/kg/injection, schedule: Q01DX001 (sc), vehicle: carboxymethylcellulose (CMC)); 0 of 6 (dose: 200.0 mg/kg/injection, schedule: Q01DX001 (sc), vehicle: other). Moreover, the survivor count (dose: 225.0 mg/kg/injection, schedule: Q01DX001 (ip), vehicle: carboxymethylcellulose (CMC)) is given as 0 of 6; the survivor count (dose: 250.0 mg/kg/injection, schedule: Q01DX001 (ip), vehicle: carboxymethylcellulose (CMC)) is reported as 0 of 6; the survivor count (dose: 300.0 mg/kg/injection, schedule: Q01DX001 (ip), vehicle: carboxymethylcellulose (CMC)) is given as 0 of 6; the survivor count (dose: 375.0 mg/kg/injection, schedule: Q01DX001 (ip), vehicle: carboxymethylcellulose (CMC)) was 0 of 6.

In the case of `O=[N+]([O-])c1ccc(SSC(Cl)(Cl)Cl)cc1`, the survivor count runs as follows: (dose: 100.0 mg/kg/injection, schedule: Q01DX009 (ip), vehicle: saline with Tween-80) 3 of 6; (dose: 200.0 mg/kg/injection, schedule: Q01DX009 (ip), vehicle: saline with Tween-80) 0 of 6; (dose: 400.0 mg/kg/injection, schedule: Q01DX009 (ip), vehicle: saline with Tween-80) 0 of 6.

On to `CC(C)(CC(=O)O)CC(=O)OCC(=O)[C@@]1(O)CC[C@H]2[C@@H]3CCC4=CC(=O)C=C[C@]4(C)[C@H]3[C@@H](O)C[C@@]21C`, for which the T/C (dose: 100.0 mg/kg/injection, schedule: Q01DX009 (sc), vehicle: steroid suspending solution) is 136 % of control.

Regarding `Cc1ccnc(SC#N)n1`, the survivor count is, setting by setting: (dose: 20.0 mg/kg/injection, schedule: Q01DX001 (ip), vehicle: other) 2 of 4; (dose: 40.0 mg/kg/injection, schedule: Q01DX001 (ip), vehicle: other) 0 of 4; (dose: 80.0 mg/kg/injection, schedule: Q01DX001 (ip), vehicle: other) 0 of 4; (dose: 100.0 mg/kg/injection, schedule: Q01DX001 (ip), vehicle: other) 0 of 4; (dose: 200.0 mg/kg/injection, schedule: Q01DX001 (ip), vehicle: other) 0 of 4; (dose: 400.0 mg/kg/injection, schedule: Q01DX001 (ip), vehicle: other) 0 of 4.

(Values after PubChem BioAssay AID248 (DTP/NCI, 2004).)
